Counter-ions that a name gives are not always drawn. ± gives the standard deviation of the averaged measurements. Some of the results follow. Values are raw readings; no control value is given beside them.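 HeLa cells imaged for ribosome-assembly readouts (ENP1 staining with or without export block, or inducible tagged ribosomal protein reporters); machine learning classified each cell's signal location against solvent (DMSO) controls. Hits exceeded the DMSO false-positive mean by five standard deviations, then were visually confirmed; three biological replicates.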

The subject of the experiment is HeLa K (ENP1 immunofluorescence, +LMB). As to the kind of experiment: fraction of cells with nucleolar or nucleolar/nucleoplasmic ENP1 signal (MainHitrate); higher = more cells with nucleolar/nuclear readout signal (for ENP1 -LMB: less RNAPI inhibition; for +LMB ENP1 and RP reporters: stronger nuclear/nucleolar retention, i.e. ribosome biogenesis defect). To be noted: concentration: 1 µM; treatment time: 6 h; ENP1 +LMB; leptomycin B: 20 nM, last 1.5 h.
As for `CO[C@H]1C[C@@H]2CC[C@@H](C)[C@@](O)(O2)C(=O)C(=O)N2CCCC[C@H]2C(=O)O[C@H]([C@H](C)C[C@@H]2CC[C@@H](OC(=O)C(C)(CO)CO)[C@H](OC)C2)CC(=O)[C@H](C)/C=C(\C)[C@@H](O)[C@@H](OC)C(=O)[C@H](C)C[C@H](C)/C=C/C=C/C=C/1C` [Temsirolimus (Torisel)], the fraction is 0.17 ± 0.08.
As for `COc1cc(NC(C)CCCN)c2ncccc2c1` (stereo not given) [Primaquine Diphosphate], the figure is 0.174 ± 0.18; as for `Clc1ccc(C(c2ccccc2Cl)C(Cl)Cl)cc1` (stereo not given) [Mitotane (Lysodren)], 0.0758 ± 0.056.
`CC(C)C[C@H](NC(=O)[C@@H](O)[C@H](N)Cc1ccccc1)C(=O)O` [Ubenimex (Bestatin)] had a fraction of 0.0668 ± 0.084.
Take `Cc1ccc(C(=O)c2cc(O)c(O)c([N+](=O)[O-])c2)cc1` [Tolcapone]: the fraction was 0.0895 ± 0.14.
Then `CO[C@H]1/C=C/O[C@@]2(C)Oc3c(C)c(O)c4c(c3C2=O)C2=NC3(CCN(CC(C)C)CC3)NC2=C(NC(=O)/C(C)=C\C=C\[C@H](C)[C@H](O)[C@@H](C)[C@@H](O)[C@@H](C)[C@H](OC(C)=O)[C@@H]1C)C4=O` [Rifabutin (Mycobutin)], with 0.129 ± 0.15.
Regarding `COC(=O)[C@@H]1CC2=CC(=O)CC[C@]2(C)[C@@]23O[C@@H]2C[C@@]2(C)[C@@H](CC[C@@]24CCC(=O)O4)[C@H]13` [Eplerenone], the fraction turned out to be 0.0605 ± 0.059.
Consider `O=c1c(-c2ccc(O)cc2)coc2cc(O)cc(O)c12` [Genistein], for which the fraction was 0.098 ± 0.1.
Then `Nc1cccc2c1CN(C1CCC(=O)NC1=O)C2=O` (stereo not given) [Lenalidomide], with 0.0567 ± 0.018; and `CCCCCCCCOc1ccccc1C(=O)Nc1ccc(C(=O)OCC[N+](C)(CC)CC)cc1` [Otilonium Bromide], with 0.161 ± 0.24.
As for `CCN(CC)CCOC(=O)C1(C2CCCCC2)CCCCC1` [Dicyclomine HCl], the figure is 0.168 ± 0.24; as for `CCCC(=O)O[C@]1(C(=O)COC(C)=O)CC[C@H]2[C@@H]3C[C@H](F)C4=CC(=O)C=C[C@]4(C)[C@@]3(F)[C@@H](O)C[C@@]21C` [Difluprednate], 0.0989 ± 0.14.
Then `N#Cc1c(N(CC(=O)O)CC(=O)O)sc(C(=O)O)c1CC(=O)O` [Strontium ranelate (Protelos)], with 0.144 ± 0.2.
For `C[C@@H]1C[C@H]2[C@@H]3CCC4=CC(=O)C=C[C@]4(C)[C@@]3(F)[C@@H](O)C[C@]2(C)[C@@]1(O)C(=O)CO` [Dexamethasone], the fraction is 0.0618 ± 0.042.
The compound `C[C@@H]1CCC[C@H](C)N1NC(=O)c1ccc(Cl)c(S(N)(=O)=O)c1` [Clopamide] registered a fraction of 0.0785 ± 0.064.
Then `Nc1cccc2c1C(=O)N(C1CCC(=O)NC1=O)C2=O` (stereo not given) [Pomalidomide], with 0.076 ± 0.052; and `NC1CCN(c2c(F)cc3c(=O)c(C(=O)O)cn(C4CC4)c3c2Cl)C1` (stereo not given) [Clinafoxacin HCl], with 0.108 ± 0.13; and `CO/N=C(\C(=O)N[C@@H]1C(=O)N2C(C(=O)OCOC(=O)C(C)(C)C)=C(/C=C\c3scnc3C)CS[C@H]12)c1csc(N)n1` [Cefditoren pivoxil], with 0.0624 ± 0.053.
As for `COC(=O)CCc1ccc(OCC(O)CNC(C)C)cc1` (stereo not given) [Esmolol HCl], the figure is 0.099 ± 0.13; as for `Nc1ccn([C@@H]2O[C@H](CO)[C@@H](O)[C@@H]2O)c(=O)n1` [Cytarabine], 0.132 ± 0.17.
As for `Cc1cn(-c2cc(NC(=O)c3ccc(C)c(Nc4nccc(-c5cccnc5)n4)c3)cc(C(F)(F)F)c2)cn1` [Nilotinib (AMN-107)], the figure is 0.092 ± 0.075; as for `CCOC(=O)c1ccc(N)cc1` [Benzocaine], 0.118 ± 0.17.
The compound `CCN(Cc1ccncc1)C(=O)C(CO)c1ccccc1` (stereo not given) [Tropicamide] had a fraction of 0.124 ± 0.19.
As for `CC(N/C(=N\C#N)Nc1ccncc1)C(C)(C)C` (stereo not given) [Pinacidil], the figure is 0.172 ± 0.25.
Consider `NC[C@@H]1O[C@H](O[C@H]2[C@@H](O)[C@H](O[C@@H]3[C@@H](O)[C@H](N)C[C@H](N)[C@H]3O[C@H]3O[C@H](CO)[C@@H](O)[C@H](O)[C@H]3N)O[C@@H]2CO)[C@H](N)[C@@H](O)[C@@H]1O` [Paromomycin Sulfate], for which the fraction came out at 0.0948 ± 0.12.
Consider `CCCC(=O)[O-].[Na+]` [Sodium butyrate], for which the fraction stood at 0.189 ± 0.29.
As for `CC(C(=O)O)c1cccc(Oc2ccccc2)c1` (stereo not given) [Fenoprofen calcium hydrate], the figure is 0.194 ± 0.31; as for `CCOC(=O)O[C@]1(C(=O)OCCl)CC[C@H]2[C@@H]3CCC4=CC(=O)C=C[C@]4(C)[C@H]3[C@@H](O)C[C@@]21C` [Loteprednol etabonate], 0.0539 ± 0.032.
On to `O=C(O)c1ccc(-n2nc(-c3ccccc3O)nc2-c2ccccc2O)cc1` [Deferasirox (Exjade)], for which the fraction is 0.0823 ± 0.074.
Then `NC(=O)N/N=C/c1ccc([N+](=O)[O-])o1` [Nitrofurazone (Nitrofural)], with 0.112 ± 0.12.
`CCCCOc1ccc(C(=O)CCN2CCCCC2)cc1` [Dyclonine HCl] had a fraction of 0.0922 ± 0.14.
As for `CC[C@@H](CO)NCCN[C@@H](CC)CO` [Ethambutol HCl], the figure is 0.13 ± 0.19; as for `CO/N=C(\C(=O)N[C@@H]1C(=O)N2C(C(=O)O)=C(CSC(=O)c3ccco3)CS[C@H]12)c1csc(N)n1` [Ceftiofur hydrochloride], 0.151 ± 0.23.
In the case of `Cn1c(CNc2ccc(C(=N)N)cc2)nc2cc(C(=O)N(CCC(=O)O)c3ccccn3)ccc21` [BIBR 953 (Dabigatran etexilate, Pradaxa)], the fraction came to 0.133 ± 0.19.
For `Cc1ccccc1N1C(=O)c2cc(S(N)(=O)=O)c(Cl)cc2NC1C` (stereo not given) [Metolazone (Zaroxolyn)], the fraction was determined as 0.0729 ± 0.061.
As for `CC(=O)Oc1ccccc1C(=O)Nc1ncc([N+](=O)[O-])s1` [Nitazoxanide (Alinia, Annita)], the fraction turned out to be 0.138 ± 0.16.
Then `CCC(C)n1ncn(-c2ccc(N3CCN(c4ccc(OCC5COC(Cn6cncn6)(c6ccc(Cl)cc6Cl)O5)cc4)CC3)cc2)c1=O` (stereo not given) [Itraconazole (Sporanox)], with 0.104 ± 0.15.
Then `COc1cc(C)c(/C=C/C(C)=C/C=C/C(C)=C/C(=O)O)c(C)c1C` [Acitretin], with 0.0924 ± 0.11; and `O=C(NCCO[N+](=O)[O-])c1cccnc1` [Nicorandil (Ikorel)], with 0.134 ± 0.18.
As for `COc1cccc2c1C(=O)c1c(O)c3c(c(O)c1C2=O)C[C@@](O)(C(C)=O)C[C@@H]3O[C@H]1C[C@H](N)[C@H](O)[C@H](C)O1` [Daunorubicin HCl (Daunomycin HCl)], the figure is 0.0505 ± 0.083.

The values above are taken from the supplement of paper PMC12542422.
